# Results are given in words; binding and its absence hold for the method and conditions named. Binding seen in cells or lysates may run through a third protein. These calls come from enrichment with a bait or labelling near it, and not all partners need be listed.
# Protein sequences, listed by entry. Tags and fused reporters are not part of them.
# UniProt P04150: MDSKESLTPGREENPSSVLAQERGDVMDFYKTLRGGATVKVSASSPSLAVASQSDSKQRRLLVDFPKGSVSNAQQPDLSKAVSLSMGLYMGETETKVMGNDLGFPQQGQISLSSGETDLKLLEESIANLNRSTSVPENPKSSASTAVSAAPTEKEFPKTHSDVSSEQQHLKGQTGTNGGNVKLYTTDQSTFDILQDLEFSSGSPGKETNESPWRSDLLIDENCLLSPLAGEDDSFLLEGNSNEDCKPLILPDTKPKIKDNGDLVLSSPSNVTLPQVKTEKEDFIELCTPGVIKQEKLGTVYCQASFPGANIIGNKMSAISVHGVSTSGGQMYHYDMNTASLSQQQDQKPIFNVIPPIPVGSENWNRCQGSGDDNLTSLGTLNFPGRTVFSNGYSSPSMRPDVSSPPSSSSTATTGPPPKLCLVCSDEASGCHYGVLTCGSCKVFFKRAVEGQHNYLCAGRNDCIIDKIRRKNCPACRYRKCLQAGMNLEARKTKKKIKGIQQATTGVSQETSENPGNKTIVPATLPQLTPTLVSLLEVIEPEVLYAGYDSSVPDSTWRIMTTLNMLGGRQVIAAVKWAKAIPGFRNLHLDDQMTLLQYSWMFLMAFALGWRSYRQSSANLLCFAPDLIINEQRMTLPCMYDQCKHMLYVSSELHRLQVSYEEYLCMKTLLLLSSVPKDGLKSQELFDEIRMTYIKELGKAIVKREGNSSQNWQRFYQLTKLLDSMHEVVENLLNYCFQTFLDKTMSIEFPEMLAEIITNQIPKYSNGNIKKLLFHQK
# Target: human glucocorticoid receptor alpha (GRα), expressed in S. pombe (human) (UniProt P04150)
# Test: affinity purification with mass spectrometry; anti-GR antibody on epoxy-activated magnetic beads; lysates of S. pombe expressing hGRα (empty vector as control) grown at 30 °C or 39 °C (heat shock 30 min); lysis buffer 250 mM NaCl, 20 mM Tris pH 7.5, 1% Triton X-100, 100 mM potassium acetate; 4 °C, 1 hour, 6 washes; SDS-PAGE and LC-MS/MS
row,Binder,binding
1,"Hsp104 heat shock protein (protein, UniProt O94641 1-905) MADYPFTDKAAKTLSDAYSIAQSYGHSQLTPIHIAAALLSDSDSNGTTLLRTIVDKAGGDGQKFERSVTSRLVRLPAQDPPPEQVTLSPESAKLLRNAHELQKTQKDSYIAQDHFIAVFTKDDTLKSLLAEAGVTPKAFEFAVNNVRGNKRIDSKNAEEGFDALNKFTVDLTELARNGQLDPVIGREDEIRRTIRVLSRRTKNNPVLIGEPGVGKTSIAEGLARRIIDDDVPANLSNCKLLSLDVGSLVAGSKFRGEFEERIKSVLKEVEESETPIILFVDEMHLLMGAGSGGEGGMDAANLLKPMLARGKLHCIGATTLAEYKKYIEKDAAFERRFQIILVKEPSIEDTISILRGLKEKYEVHHGVTISDRALVTAAHLASRYLTSRRLPDSAIDLVDEAAAAVRVTRESQPEVLDNLERKLRQLRVEIRALEREKDEASKERLKAARKEAEQVEEETRPIREKYELEKSRGSELQDAKRRLDELKAKAEDAERRNDFTLAADLKYYGIPDLQKRIEYLEQQKRKADAEAIANAQPGSEPLLIDVVGPDQINEIVARWTGIPVTRLKTTEKERLLNMEKVLSKQVIGQNEAVTAVANAIRLSRAGLSDPNQPIASFLFCGPSGTGKTLLTKALASFMFDDENAMIRIDMSEYMEKHSVSRLIGAPPGYVGHEAGGQLTEQLRRRPYSVILFDEIEKAAPEVLTVLLQVLDDGRITSGQGQVVDAKNAVIIMTSNLGAEYLTTDNESDDGKIDSTTREMVMNSIRGFFRPEFLNRISSIVIFNRLRRVDIRNIVENRILEVQKRLQSNHRSIKIEVSDEAKDLLGSAGYSPAYGARPLNRVIQNQVLNPMAVLILNGQLRDKETAHVVVQNGKIFVKPNHEANANGSADIDMDGIDDDVNDEELE",binds
2,"hmt2 (protein, UniProt O94284 25-459) ASTHHKVLVVGGGSAGISVAHQIYNKFSKYRFANDQGKDTSLKPGEIGIVDGAKYHYYQPGWTLTGAGLSSVAKTRRELASLVPADKFKLHPEFVKSLHPRENKIVTQSGQEISYDYLVMAAGIYTDFGRIKGLTEALDDPNTPVVTIYSEKYADAVYPWIEKTKSGNAIFTQPSGVLKCAGAPQKIMWMAEDYWRRHKVRSNIDVSFYTGMPTLFSVKRYSDALLRQNEQLHRNVKINYKDELVEVKGSERKAVFKNLNDGSLFERPFDLLHAVPSMRSHEFIAKSDLADKSGFVAVDQSTTQSTKFPNVFAIGDCSGLPTSKTYAAITAQAPVMVHNLWSFVNGKNLTASYNGYTSCPLLTGYGKLILAEFLYKQEPKESFGRFSRFLDQTVPRRMFYHLKKDFFPFVYWNFAVRNGKWYGSRGLIPPHFPVN",binds
3,"acidic ribosomal protein Rpp0 (protein, UniProt O74864 1-312) MAISKESKAQYFEKLRSLFEKYNSLFVVNIDNVSSQQMHTVRKQLRGTAELIMGKNTMIRRAMRGIINDMPELERLLPVVRGNVGFVFTNADLKEVRETIIANVIAAPARPNAIAPLDVFVPAGNTGMEPGKTSFFQALGIPTKITRGTIEITSDVHLVSKDAKVGPSEATLLNMLNISPFTYGMDVLTIYDQGNVFSPEILDVSEEDLIGHLLSAASIITAISLGANYPTILSVMHSVVNAYKNLVAVSLATEYTFEGTEQTKAFLADPSAFVVAAAPAAAAGGEAEAPAAEAAAEEEEESDEDMGFGLFD",binds
4,"19 S proteasome regulatory subunit Mts4 (protein, UniProt P87048 1-891) MSSKDISSKSPSGNDALNDKKGTKTSETNDRNSTNNTKERDELEDLSEEDLQLKNDLELLVQAVQDATPELVGSSLTQLKEIIRTSTSSMTAVPKPLKFLRPHYFTLVKIYDSWPQSPQKTQLADILSVLGMSYSNTSKHESLKYRLQGVTTDPSLWGHEYVRHLASEIEEEFASRQEEEAPTDDLMELALTIVPFFLTHNAEADAIDLLQELGAIEKVVPFVELDNASRVCLYITSCVNLLPFPEDVAMLRTAHAIYRKFDQLTQALNVAIRLDDMSLIKEDCEAATDPLLKKQMSYMLARQQIPMDMGDEELNDALNNTHLSDHFHYLGKELNLMDPKVPEDIFKTHLEVARTGLGASGVYSAKQNLANTFVNALVNAGYSNDRLILVDDEKTSWIYKNKESGLISATASIGLLQLWNVDMGLSLLDKYLYSSEENTKAGALLGIGVTNVAVRNEADPAMAILSEYLETGSVKLRASAILGLGLAYSGANREDLLDMLSPIVTDTDCPMQLSCLAALSLGLIFVGTCNGDVASTILQTLMEREESAQNDQWGRFMALGLALLFNGKQDLADATVETLKAIEGKIARQAEILVDICSYAGTGNVLHIQKLLHICSEPPSDDAKESETTIQTFAALGVATIAMGEDIGAEMVLRHFDHMMHYGEPSIRKAIPLALGLLSASNPQMRIFDTLSRYSHDNDLDVAYNAIFAMGLVGAGTSNARLAQLLRQLASYYHKESNALFMVRIAQGLLYLGKGTMTLNPYHTERQILGQTAFAGLMTVVLAMLDANTFVLDTSHWLLYAITLAIRPRMLITLGEDGQYLPVSVRVGQAVDVVGQAGRPKVITGWVTHTTPVLLHHNERAELATEAYTPLTSLEGIVILKKNTEDIEMTA",binds
5,"RNA polymerase I upstream activation factor complex subunit Spp27 (protein, UniProt O74503 1-233) MEEYETDIKQILGTVDRQTVSAKQVRQLLEERRKVDLSAHKKDLNALILKCFDETAAPSEKESLEKQAPARKTKGKRATENGTEEGKKPAKRTRKRKEDGEEGGKRKRNQDPANNPLNKPMKLSPKLAEFLGLEQLSRPQTVKKLWEYIKAHDLQDPNDKRTILCDDKLKSVFEVDTLHMFTMNKYLTNLMTKIPDDQLPKPQPKNEEPAAPNDLPKQEEKELVEPPTAESTA",binds
6,"19 S proteasome regulatory subunit Rpt3 (protein, UniProt O74894 1-389) MNSTEEIDLYNRWKALERQLEMLDLQEGFIKEDCKSLKRELIRAQEEVKRIQSVPLVIGQFLEAIDQNTAIVGSTTGSNYVVRILSTLDRELLKPSASVALQRHSNALVDILPPEADSSISMLRPDERPDVSYADVGGLDVQKQEVREAVELPLTQGDLYRQIGIDPPRGVLLYGPPGTGKTMLVKAVANSTAANFIRVVGSEFVQKYLGEGPRMVRDVFRMARENAPAIIFIDEIDAIATKRFDAQTGADREVQRILIELLTQMDGFDQGANVKVIMATNRADTLDPALLRPGRLDRKIEFPSYRDRRQRRLVFQTITAKMLLSPEVDLDTFIMRPDASSGAQIAAIMQDAGLLAVRKSRGVILQSDIEEAYARAVKPTDMEQFAFYK",binds
7,"hob3 (protein, UniProt Q9UUM7 1-264) MSWHGFKKAVNRAGTSVMMKTGHVERTVDREFETEERRYRTMESAAKKLQKEAKGYLDALRAMTASQTRIANTIDAFYGDAGSKDGVSAYYRQVVEDLDADTVKELDGPFRTTVLDPISRFCSYFPDINAAITKRNHKLLDHDAMRAKVQKLVDKPSNDTTKLPRTEKEAAMAKEVYETLNNQLVSELPQLIALRVPYLDPSFEALVKIQLRFCREGYEKMAQVQQYFDNSVREDYSNGLLDDKVEQVLQSMRDLSIAGLNNSQ",binds

# Now from value to binder:
row,binding,Binder
1,binds,"leu1 (protein, UniProt P18869 1-371) MCAKKIVVLPGDHIGPEIVASALEVLKVVEKKRPELKLEFEEHKIGGASIDAYGTPLTDETVKACLEADGVLLGAVGGPEWTNPNCRPEQGLLKLRKSMGVWANLRPCNFASKSLVKYSPLKPEIVEGVDFCVVRELTGGCYFGERTEDNGSGYAMDTWPYSLEEVSRIARLAAWLAETSNPPAPVTLLDKANVLATSRLWRKTVAKIFKEEYPHLTLKNQLIDSAAMLLVKSPRTLNGVVLTDNLFGDIISDEASVIPGSLGLLPSASLSGVVGKSEEKVHCLVEPIHGSAPDIAGKGIVNPVGTILSASLLLRYGLNAPKEAEAIEAAVRKVLDDTSIGGRGLYTRDLGGEASTADITKAVVEELEKIL"
2,binds,"rpl2801 (protein, UniProt P57728 1-148) MPTHTSKTRKLRGHVSAGHGRIGKHRKHPGGRGKAGGLQHLRSHFDKYHPGYFGKVGMRRFHLMKNPLWRPTVNLDRLWTLVPNETREKYLGKNTEVAPVINVLQSGYGKVLGKGRLPDTPVIIQTRYVSRRAEEKIKQAGGVVELIA"
3,binds,"thioredoxin peroxidase Tpx1 (protein, UniProt O74887 1-192) MSLQIGKPAPDFKGTAVVNGAFEEIKLADYKGKWVFLGFYPLDFTFVCPTEIVAFSEAASKFAERNAQVILTSTDSEYSHLAFINTPRKEGGLGGINIPLLADPSHKVSRDYGVLIEDAGVAFRGLFLIDPKGVLRQITINDLPVGRSVDEALRLLDAFQFVEEHGEVCPANWHKGSDTIDTKNPEKYFSKH"
4,binds,"pas1 (protein, UniProt P87049 1-411) MSKVNMRALLESFSTVILSIYPLAKSTNQQSHSHSLSLTQFLYETIRRSRVDYTTLLLALYYFIRFRDAASSKPTNYIPLLCGRRLFLVCLMAATKFLQDRSFSNRAWSRLSGLPVDKLLVLEYMFYQCIDYRLVVPKHIFARWSLLVGECCAHATARYDSTDPNVASFGSVAQYWVSLFSNVQSSLDDLFSIACLTKIAHRRMNANAALKNQATRKPSSSPQTTQDSSPILTMAPSTPVSVGSTPPSTPSVLPIAKQLAPMNVCKAHIQASNQSRTLTTASPPEQIPLMEPQVYVNPQVLPGRLSSLSKPVSLPPTPSSPKVGVYRPMTSKSNGGVAYCYNAQKLNNATGPVTFNMPFASVLPLAVSVSCDLGTASAYVASLPQPCSQKRHLEEDYSCLTEHSAKRRSYF"
5,binds,"rpl2401 (protein, UniProt Q92354 1-149) MKVEVCSFSGSKVYPGAGRLFVRGDNKVFRFVNKKSESLFLQRKNPRRLSWTVLYRRMHKKGISEEHAKKRTRRTVKHQRGIVGANLDVIKEKRNQRPEVRAAARAAALKQRKDKKAASESEKKAIKAKSAASSARGQAIKNAKAAARH"
